Structures are written as SMILES. Structures can show the parent of a compound that is named as a salt. Some of the results follow. Single values are uncertain here, since repeats match poorly.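 Cells: ReNCell VM human fetal ventral-midbrain neural progenitors, differentiated mitogen-free. Blinded raters compared doublecortin-stained (early neurons) or tyrosine hydroxylase-stained (dopaminergic neurons) images with untreated wells, where 0 means no change. After repeats and both raters were averaged, compounds scoring 2 or above became hits for retesting.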 Where a SMILES comes first, the peptide text is derived from it. [ ]: non-standard residue; d: D form.

Assay [1] has as its system ReNCell VM. The assay is described as follows: neuronal differentiation score (DCX+ cell fraction vs untreated, manual image score) (score (-3 to 3)); higher = more neuronal differentiation. The note with it: 2 uM, 2 weeks.
Assay [2] relates to ReNCell VM. The assay is described as follows: dopaminergic neuron differentiation score (TH+ cell fraction vs untreated, manual image score) (score (0 to 3)); higher = more TH+ dopaminergic neuron differentiation. Conditions: 2 uM, 4 weeks, BDNF 10 ng/ml + GDNF 10 ng/ml.

Consider `COc1cc(C2Oc3cc([C@H]4Oc5cc(O)cc(O)c5C(=O)[C@@H]4O)ccc3OC2CO)ccc1O` (stereo partly specified) [silibinin], for which the neuronal differentiation score in the assay on ReNCell VM [1] (library: Natural) was inactive: 0. In addition, in the assay with ReNCell VM [2] (library: Natural), the “dopaminergic neuron differentiation score” value is inactive: 0.
Consider `CN[C@@H]1[C@H](O)[C@H](NC)[C@H]2O[C@@]3(O)C(=O)C[C@@H](C)O[C@H]3O[C@@H]2[C@H]1O` [spectinomycin], for which, in the assay with ReNCell VM [1] (library: Natural), the neuronal differentiation score was inactive: 0. Moreover, the “dopaminergic neuron differentiation score” value with ReNCell VM [2] (library: Natural) was inactive: 0.
As for `COc1c2c(cc3oc(CO)cc(=O)c13)O[C@H](C(C)(C)O)C2` [Cimifugin], in the assay with ReNCell VM [1] (library: Phytochemical), the neuronal differentiation score was inactive: 0. Further, the “dopaminergic neuron differentiation score” value in the assay with ReNCell VM [2] (library: Phytochemical) was inactive: 0.
`N[C@@H](Cc1ccc(O)c(I)c1)C(=O)O` [3-Iodo-L-tyrosine]: the neuronal differentiation score in the assay on ReNCell VM [1] (library: LOPAC) was inactive: 0. Further, the “dopaminergic neuron differentiation score” value in the assay on ReNCell VM [2] (library: LOPAC) was inactive: 0.
Take `CN1CCOC(c2ccccc2)c2ccccc2C1` (stereo unspecified): the neuronal differentiation score in the assay on ReNCell VM [1] (library: Spectrum) is inactive: 0. For the same compound, the “dopaminergic neuron differentiation score” value in the assay with ReNCell VM [2] (library: Spectrum) was inactive: 0.
Turning to `Cc1nc(N=Nc2ccc(S(=O)(=O)O)cc2S(=O)(=O)O)c(COP(=O)(O)O)c(C=O)c1O`, in the assay on ReNCell VM [1] (library: LOPAC), the neuronal differentiation score is inactive: 1. The “dopaminergic neuron differentiation score” value in the assay with ReNCell VM [2] (library: LOPAC) was inactive: 0.
In the case of `O=C(O)c1ccccc1C(=O)Nc1ccc(S(=O)(=O)Nc2nccs2)cc1` [Phthalylsulfathiazole], the neuronal differentiation score in the assay on ReNCell VM [1] (library: Prestwick) was inactive: 0. Further, the “dopaminergic neuron differentiation score” value in the assay on ReNCell VM [2] (library: Prestwick) is inactive: 0.
As to `CN1CCN(C2=Nc3cc(Cl)ccc3Nc3ccccc32)CC1`, the neuronal differentiation score in the assay on ReNCell VM [1] (library: Spectrum) is inactive: 0. Further, in the assay on ReNCell VM [2] (library: Spectrum), the “dopaminergic neuron differentiation score” value was inactive: 0.
Turning to `CC(=O)NCC(=O)N[C@H](CCC(=O)O)C(=O)O` [N-Acetylglycyl-D-glutamic acid] (Ac-Gly-[dE]-OH), the neuronal differentiation score in the assay on ReNCell VM [1] (library: Tocriscreen) is inactive: 0. The “dopaminergic neuron differentiation score” value in the assay on ReNCell VM [2] (library: Tocriscreen) is inactive: 0.
Regarding `OC(Cn1cncn1)(Cn1cncn1)c1ccc(F)cc1F` [Fluconazole], in the assay with ReNCell VM [1] (library: Prestwick), the neuronal differentiation score was inactive: 0. The “dopaminergic neuron differentiation score” value in the assay on ReNCell VM [2] (library: Prestwick) was inactive: 0.
Consider `CCCCCCCCCCCCC[N+](C)(C)Cc1ccccc1`, for which, in the assay on ReNCell VM [1] (library: Spectrum), the neuronal differentiation score is inactive: 0. The “dopaminergic neuron differentiation score” value in the assay with ReNCell VM [2] (library: Spectrum) was inactive: 0.
In the case of `CC(C)NCCN(C(C)C)S(=O)(=O)c1ccc(Cl)cc1Cl`, the neuronal differentiation score in the assay on ReNCell VM [1] (library: Tocriscreen) is inactive: 0. The “dopaminergic neuron differentiation score” value in the assay with ReNCell VM [2] (library: Tocriscreen) was inactive: 0.
Take `COc1cc2oc3cc(OC)c(OC)c(CC=C(C)C)c3c(=O)c2c(OC)c1CC=C(C)C`: the neuronal differentiation score in the assay on ReNCell VM [1] (library: Spectrum) was inactive: 0. Also, in the assay on ReNCell VM [2] (library: Spectrum), the “dopaminergic neuron differentiation score” value was inactive: 1.
Taken in the same sequence, the figures for `O=C(O[C@@H]1Cc2c(O)cc(O)cc2O[C@@H]1c1cc(O)c(O)c(O)c1)c1cc(O)c(O)c(O)c1` were inactive: 0 and inactive: 0.
In the case of `NCCCCCCCCCCN` [1,10-Diaminodecane], the neuronal differentiation score in the assay on ReNCell VM [1] (library: LOPAC) was inactive: 0. Further, in the assay with ReNCell VM [2] (library: LOPAC), the “dopaminergic neuron differentiation score” value was inactive: 0.
With `Cc1ccc(NC2=CC(=O)c3sc(C)nc3C2=O)cc1` [Ryuvidine], the neuronal differentiation score with ReNCell VM [1] (library: Tocriscreen) was inactive: 0. For the same compound, the “dopaminergic neuron differentiation score” value in the assay with ReNCell VM [2] (library: Tocriscreen) was inactive: 0.
With `CCC(=O)NC1CCc2cccc(OC)c2C1` (stereo unspecified), the neuronal differentiation score with ReNCell VM [1] (library: Tocriscreen) is inactive: 0. The “dopaminergic neuron differentiation score” value in the assay on ReNCell VM [2] (library: Tocriscreen) was inactive: 0.
With `CCOc1ccccc1C(N)=O`, in the assay on ReNCell VM [1] (library: Spectrum), the neuronal differentiation score is inactive: 0. In the assay with ReNCell VM [2] (library: Spectrum), the “dopaminergic neuron differentiation score” value is inactive: 1.
With `COc1ccc2[nH]c([S+]([O-])Cc3ncc(C)c(OC)c3C)nc2n1` (stereo unspecified) [Tenatoprazole], the neuronal differentiation score in the assay on ReNCell VM [1] (library: Prestwick) is inactive: 0. Also, the “dopaminergic neuron differentiation score” value with ReNCell VM [2] (library: Prestwick) is inactive: 0.
Consider `COc1cc(-c2coc3cc(O[C@@H]4O[C@H](CO)[C@@H](O)[C@H](O)[C@H]4O)c(OC)c(O)c3c2=O)cc(O)c1OC`, for which the neuronal differentiation score with ReNCell VM [1] (library: Spectrum) is inactive: 0. Besides, the “dopaminergic neuron differentiation score” value in the assay with ReNCell VM [2] (library: Spectrum) was inactive: 0.
`O=C(O)COC(=O)Cc1ccccc1Nc1c(Cl)cccc1Cl` [Aceclofenac]: in the assay with ReNCell VM [1] (library: Prestwick), the neuronal differentiation score is inactive: 0. For the same compound, the “dopaminergic neuron differentiation score” value in the assay with ReNCell VM [2] (library: Prestwick) is inactive: 0.
For the compound `CC1(C)S[C@@H]2[C@H](NC(=O)Cc3ccccc3)C(=O)N2[C@H]1C(=O)O` [Benzylpenicillin sodium], the neuronal differentiation score in the assay with ReNCell VM [1] (library: Prestwick) is inactive: 0. Further, in the assay with ReNCell VM [2] (library: Prestwick), the “dopaminergic neuron differentiation score” value is inactive: 0.
In the case of `O=C(NCCN1CCCCC1)c1ccc(I)cc1` [N-[2-(Piperidinylamino)ethyl]-4-iodobenzamide], the neuronal differentiation score in the assay on ReNCell VM [1] (library: Tocriscreen) was inactive: 0. Besides, the “dopaminergic neuron differentiation score” value with ReNCell VM [2] (library: Tocriscreen) was inactive: 0.
As for `CO/N=C(\C(=O)N[C@@H]1C(=O)N2C(C(=O)O)=C(COC(N)=O)CS[C@H]12)c1ccco1` [Cefuroxime sodium salt], the neuronal differentiation score in the assay with ReNCell VM [1] (library: Prestwick) was inactive: 0. Also, the “dopaminergic neuron differentiation score” value in the assay on ReNCell VM [2] (library: Prestwick) is inactive: 0.
Take `N[C@@H](Cc1c[nH]c2ccccc12)C(=O)O` [L-Tryptophan]: in the assay on ReNCell VM [1] (library: LOPAC), the neuronal differentiation score was inactive: 0. Further, the “dopaminergic neuron differentiation score” value in the assay on ReNCell VM [2] (library: LOPAC) was inactive: 0.
For the compound `Nc1nc(=S)c2ncn([C@@H]3O[C@H](CO)[C@@H](O)[C@H]3O)c2[nH]1`, the neuronal differentiation score with ReNCell VM [1] (library: Spectrum) is inactive: -1. In addition, in the assay on ReNCell VM [2] (library: Spectrum), the “dopaminergic neuron differentiation score” value was inactive: 0.
In the case of `Cc1nc(-c2ccc(OCC(C)C)c(C#N)c2)sc1C(=O)O`, the neuronal differentiation score with ReNCell VM [1] (library: Spectrum) is inactive: 0. The “dopaminergic neuron differentiation score” value in the assay with ReNCell VM [2] (library: Spectrum) was inactive: 0.
For `CCOC(=O)CC(=O)N1CCSC1COc1ccccc1OC` (stereo unspecified), the neuronal differentiation score in the assay with ReNCell VM [1] (library: Spectrum) is inactive: 0. In the assay on ReNCell VM [2] (library: Spectrum), the “dopaminergic neuron differentiation score” value was inactive: 1.
On to `CN1CCc2c(cc(O)c(O)c2Cl)C(c2cccc(Cl)c2)C1` (stereo unspecified), for which, in the assay on ReNCell VM [1] (library: LOPAC), the neuronal differentiation score is inactive: -1. Also, in the assay on ReNCell VM [2] (library: LOPAC), the “dopaminergic neuron differentiation score” value is inactive: 0.
On to `CC[C@H](CC[C@@H](C)[C@H]1CC[C@H]2[C@@H]3CC=C4C[C@@H](O)CC[C@]4(C)[C@H]3CC[C@]12C)C(C)C` [beta-SITOSTEROL], for which the neuronal differentiation score in the assay with ReNCell VM [1] (library: Spectrum) is inactive: 0. Further, in the assay on ReNCell VM [2] (library: Spectrum), the “dopaminergic neuron differentiation score” value was inactive: 0.
For the compound `CC[N+](C)(CC)CCOC(=O)C1c2ccccc2Oc2ccccc21` [Methantheline bromide], the neuronal differentiation score in the assay on ReNCell VM [1] (library: Prestwick) is inactive: 0. In addition, in the assay on ReNCell VM [2] (library: Prestwick), the “dopaminergic neuron differentiation score” value was inactive: 1.
Turning to `CCOC(=O)[C@H](CCc1ccccc1)N[C@@H](C)C(=O)N1CCC[C@H]1C(=O)O`, the neuronal differentiation score with ReNCell VM [1] (library: Spectrum) is inactive: 0. In the assay with ReNCell VM [2] (library: Spectrum), the “dopaminergic neuron differentiation score” value is inactive: 0.
Turning to `CC[N+](CC)(CC)CCOc1cccc(OCC[N+](CC)(CC)CC)c1OCC[N+](CC)(CC)CC`, the neuronal differentiation score in the assay on ReNCell VM [1] (library: Spectrum) was inactive: 0. The “dopaminergic neuron differentiation score” value with ReNCell VM [2] (library: Spectrum) was inactive: 0.

Values taken from the supplement of paper PMC4635364.
